According to the supplement of paper PMC6331611:
± gives the standard deviation of the averaged measurements. Over roughly 1,600 compounds, “normalized intracellular growth (luminescence, IQM-normalized) in RAW264.7 macrophages” has its median near 1; the lowest 2% begin near 0.43. This is one part of the list.

Tested on: Salmonella enterica serovar Typhimurium SL1344
Assay: normalized intracellular growth (luminescence, IQM-normalized) in RAW264.7 macrophages (fraction of plate interquartile mean); higher = more bacterial growth (less inhibition)
Details: 10 µM

Row | SMILES | normalized intracellular growth (time point: T3 (3 h)) | normalized intracellular growth (time point: Tfinal (~6 h))
1 | C=C[C@H]1CN2CC[C@H]1C[C@H]2[C@H](O)c1ccnc2ccc(OC)cc12 | 0.978 ± 0.042 | 0.953 ± 0.058
2 | CC1(C)S[C@@H]2[C@H](NC(=O)[C@H](N)c3ccccc3)C(=O)N2[C@H]1C(=O)O | 1.01 ± 0.043 | 0.903 ± 0.052
3 | O=c1n(CCCN2CCN(c3cccc(Cl)c3)CC2)nc2ccccn12 | 1.13 ± 0.13 | 1.36 ± 0.22
4 | CC(=O)NCCCCCC(=O)O | 0.997 ± 0.019 | 1.02 ± 0.17
5 | O=C(O)c1cc(=O)[nH]c(=O)[nH]1 | 0.953 ± 0.054 | 0.959 ± 0.14
6 | C[C@]12CCC(=O)C=C1[C@@H]1C[C@@H]1[C@H]1[C@@H]3[C@@H]4C[C@@H]4[C@@]4(CCC(=O)O4)[C@@]3(C)CC[C@@H]12 | 0.9497 ± 0.0089 | 0.981 ± 0.18
7 | Nc1cc(N2CCCCC2)nc(N)[n+]1[O-] | 1.03 ± 0.079 | 0.827 ± 0.02
8 | O=C(O)c1ccccc1OP(=O)(O)O | 0.948 ± 0.031 | 1.06 ± 0.088
9 | C/C=C(/C(=C/C)c1ccc(O)cc1)c1ccc(O)cc1 | 1.02 ± 0.045 | 1.1 ± 0.051
10 | Cc1ncc([N+](=O)[O-])n1CC(C)O (stereo unspecified) | 1.09 ± 0.064 | 1.04 ± 0.18
11 | CC1=C(/C=C/C(C)=C/C=C/C(C)=C/CO)C(C)(C)CCC1 | 0.817 ± 0.0092 | 0.92 ± 0.058
12 | CC(=O)O[C@H]1C(=O)[C@@]2(C)[C@H]([C@H](OC(=O)c3ccccc3)[C@]3(O)C[C@H](OC(=O)[C@H](O)[C@@H](NC(=O)c4ccccc4)c4ccccc4)C(C)=C1C3(C)C)[C@]1(OC(C)=O)CO[C@@H]1C[C@@H]2O | 1.01 ± 0.019 | 1.14 ± 0.18
13 | CCCN(CCC)CCc1cccc2c1CC(=O)N2 | 0.992 ± 0.072 | 1.11 ± 0.28
14 | O[C@H]1[C@H](O)[C@@H](O)[C@H](O)[C@@H](O)[C@H]1O | 1.03 ± 0.069 | 0.958 ± 0.043
15 | COc1cccc2c1C(=O)c1c(O)c3c(c(O)c1C2=O)C[C@@](O)(C(=O)CO)C[C@@H]3O[C@H]1C[C@H](N)[C@@H](O)[C@H](C)O1 | 0.93 ± 0.027 | 0.612 ± 0.21
16 | Cc1nc2ccccn2c(=O)c1CCN1CCC(C(=O)c2ccc(F)cc2)CC1 | 1.08 ± 0.03 | 1.13 ± 0.051
17 | O=C(CCNNC(=O)c1ccncc1)NCc1ccccc1 | 1.08 ± 0.084 | 0.856 ± 0.1
18 | NC(=O)c1cnccn1 | 1.07 ± 0.013 | 1.14 ± 0.083
19 | CC(C)(C)CC(C)(C)c1cc(Cc2cc(C(C)(C)CC(C)(C)C)cc(-n3nc4ccccc4n3)c2O)c(O)c(-n2nc3ccccc3n2)c1 | 1.02 ± 0.096 | 1.19 ± 0.3
20 | C[C@@H](O)[C@H]1C(=O)N2C(C(=O)O)=C(S[C@@H]3CN[C@H](C(=O)N(C)C)C3)[C@H](C)[C@H]12 | 0.957 ± 0.043 | 0.98 ± 0.062
21 | Cc1cc(C)cc(OCC2CNC(=O)O2)c1 (stereo unspecified) | 1.04 ± 0.012 | 1.14 ± 0.039
22 | CC(=O)O[C@H]1C[C@@H]2CC[C@@H]3[C@H](CC[C@@]4(C)[C@H]3C[C@H]([N+]3(C)CCCCC3)[C@@H]4OC(C)=O)[C@@]2(C)C[C@@H]1N1CCCCC1 | 0.918 ± 0.046 | 0.631 ± 0.23

Pulled one by one from above (2):
Row | SMILES | normalized intracellular growth (time point: T3 (3 h)) | normalized intracellular growth (time point: Tfinal (~6 h))
16 | Cc1nc2ccccn2c(=O)c1CCN1CCC(C(=O)c2ccc(F)cc2)CC1 | 1.08 ± 0.03 | 1.13 ± 0.051
17 | O=C(CCNNC(=O)c1ccncc1)NCc1ccccc1 | 1.08 ± 0.084 | 0.856 ± 0.1

Remaining list, next part:

Row | SMILES | normalized intracellular growth (time point: T3 (3 h)) | normalized intracellular growth (time point: Tfinal (~6 h))
23 | C[C@]12C=CC(=O)C=C1CC[C@H]1[C@@H]3C[C@@H](O)[C@](O)(C(=O)CO)[C@@]3(C)C[C@H](O)[C@@]12F | 0.79 ± 0.046 | 1.28 ± 0.072
24 | CCN(CC)C(=O)/C(C#N)=C/c1cc(O)c(O)c([N+](=O)[O-])c1 | 1.03 ± 0.044 | 1.12 ± 0.092
25 | C[C@@H]1O[C@@H](OC[C@H]2O[C@@H](Oc3c(-c4ccc(OCCO)c(OCCO)c4)oc4cc(OCCO)cc(O)c4c3=O)[C@H](O)[C@@H](O)[C@@H]2O)[C@H](O)[C@H](O)[C@H]1O | 0.951 ± 0.034 | 0.746 ± 0.24
26 | OC(c1cc(C(F)(F)F)nc2c(C(F)(F)F)cccc12)C1CCCCN1 (stereo unspecified) | 0.943 ± 0.027 | 1.04 ± 0.026
27 | CNCCCC12CCC(c3ccccc31)c1ccccc12 | 0.587 ± 0.078 | 1.21 ± 0.31
28 | CCCCCC(=O)O[C@]1(C(C)=O)CC[C@H]2[C@@H]3CCC4=CC(=O)CC[C@]4(C)[C@H]3CC[C@@]21C | 1.04 ± 0.038 | 0.973 ± 0.43
29 | CCCCCNC(=N)N/N=C/c1c[nH]c2ccc(OC)cc12 | 1.05 ± 0.1 | 1.08 ± 0.037
30 | COc1c(C)c2c(c(O)c1C/C=C(\C)CCC(=O)O)C(=O)OC2 | 0.937 ± 0.043 | 0.932 ± 0.048
31 | O=C(O)c1ccc(S(=O)(=O)N(Cl)Cl)cc1 | 0.9347 ± 0.0043 | 0.992 ± 0.067
32 | O=C(Oc1ccccc1C(=O)O)c1ccccc1O | 0.986 ± 0.018 | 0.909 ± 0.032
33 | Nc1ccc(C(=O)O)cc1 | 1.023 ± 0.0022 | 0.829 ± 0.11
34 | CCN1CCCC(OC(=O)C(c2ccccc2)c2ccccc2)C1 (stereo unspecified) | 1.01 ± 0.057 | 0.964 ± 0.068
35 | NCCNCCNCCN | 0.972 ± 0.044 | 1.2 ± 0.037
36 | CN(C/C=C/c1ccccc1)Cc1cccc2ccccc12 | 0.953 ± 0.033 | 1.11 ± 0.035
37 | CN1C(=O)OC(C)(C)C1=O | 1 ± 0.034 | 1.07 ± 0.19
38 | CC(=O)CCCCn1c(=O)c2c(ncn2C)n(C)c1=O | 1.05 ± 0.038 | 1.04 ± 0.054
39 | C[C@H]1O[C@@H](n2cc(F)c(=O)[nH]c2=O)[C@H](O)[C@@H]1O | 0.932 ± 0.037 | 0.828 ± 0.11
40 | CCCCNc1cc(C(=O)O)cc(S(N)(=O)=O)c1Oc1ccccc1 | 1.07 ± 0.04 | 0.723 ± 0.32
41 | C[C@H](Cn1cnc2c(N)ncnc21)OCP(=O)(O)O | 1.03 ± 0.072 | 1.08 ± 0.036
42 | CC(C)n1c(/C=C/C(O)CC(O)CC(=O)O)c(-c2ccc(F)cc2)c2ccccc21 (stereo unspecified) | 1 ± 0.059 | 1.27 ± 0.16
43 | CCCCC/C=C/CCC(=O)N[C@H]1[C@H](Oc2c3cc4cc2Oc2ccc(cc2Cl)[C@@H](O[C@@H]2O[C@H](CO)[C@@H](O)[C@H](O)[C@H]2NC(C)=O)[C@@H]2NC(=O)[C@H](NC(=O)[C@@H]4NC(=O)[C@H]4NC(=O)C(Cc5ccc(c(Cl)c5)O3)NC(=O)[C@H](N)c3ccc(O)c(c3)Oc3cc(O)cc4c3)c3ccc(O)c(c3)-c3c(OC4O[C@H](CO)[C@@H](O)[C@H](O)[C@@H]4O)cc(O)cc3[C@@H](C(=O)O)NC2=O)O[C@H](CO)[C@@H](O)[C@@H]1O (stereo partly specified) [TEICOPLANIN [A(2-1) shown]] | 0.955 ± 0.07 | 1.07 ± 0.065
